Source: PMC4949214
These are yes or no findings as the source states them, for the method shown. A result given as binding can be weak or reduced; the word gives no strength. Where a sequence is shown, tags or fusion partners need not be part of it.

Columns and labels:
[1] = biological target: T1, OsSAP1 fused with the GAL4 DNA binding domain (SAP1-BD) (rice (Oryza sativa ssp. indica cv. Pusa Basmati-1)) (UniProt A2Z2J6); assay: two-hybrid; GAL4 system, yeast; activation of the LacZ reporter, quantitative β-galactosidase assay with ONPG as substrate
T1 sequence: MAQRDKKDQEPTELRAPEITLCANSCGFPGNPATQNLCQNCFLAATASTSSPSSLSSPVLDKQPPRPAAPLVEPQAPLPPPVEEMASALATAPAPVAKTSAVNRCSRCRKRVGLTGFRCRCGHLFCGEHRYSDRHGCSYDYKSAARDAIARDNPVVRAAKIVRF

[2] = biological target: T2, A20 domain of OsSAP1 fused with the GAL4 DNA binding domain (A20-BD) (rice (Oryza sativa ssp. indica cv. Pusa Basmati-1)) (UniProt A2Z2J6); assay: two-hybrid; GAL4 system, yeast AH109; BD baits (pGBKT7) co-transformed with AD clones (pGADT7-Rec); growth on SD/-His/-Leu/-Trp and SD/-Ade/-His/-Leu/-Trp
T2 sequence: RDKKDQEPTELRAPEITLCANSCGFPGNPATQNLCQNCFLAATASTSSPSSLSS

[3] = biological target: T3, linker region between A20 and AN1 domain of OsSAP1 fused with the GAL4 DNA binding domain (SAP1ΔA20ΔAN1-BD) (rice (Oryza sativa ssp. indica cv. Pusa Basmati-1)) (UniProt A2Z2J6); assay: as above
T3 sequence: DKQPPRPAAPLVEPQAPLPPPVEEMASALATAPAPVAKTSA

[4] = biological target: T4, AN1 domain of OsSAP1 fused with the GAL4 DNA binding domain (AN1-BD) (rice (Oryza sativa ssp. indica cv. Pusa Basmati-1)) (UniProt A2Z2J6); assay: as above
T4 sequence: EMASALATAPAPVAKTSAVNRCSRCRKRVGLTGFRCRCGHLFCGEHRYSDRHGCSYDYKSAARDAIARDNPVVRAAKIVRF

[5] = biological target: T1, OsSAP1 fused with the GAL4 DNA binding domain (SAP1-BD) (rice (Oryza sativa ssp. indica cv. Pusa Basmati-1)); assay: as above

Measured: binding

OsAMTR1 (aminotransferase) fused with the GAL4 activation domain (AMTR1-AD)
binds: all assays above
